# Laboratory results published in the supplement of paper PMC8728848.
# This is one part of the list.
# Tests used:
# Assay in all cases: glycan array binding signal (z-score within array); higher = stronger binding
# Settings in all cases: glycan notation: IUPAC condensed, linker removed
# [1] = target: GalNAc3S(b1-4)[Fuc(a1-3)]GlcNAc
# Procedure, shortened: (§1)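 The binding signal is a Z-score computed within each array. Data were drawn from 3228 arrays in the Consortium for Functional Glycomics database, restricted to those with a known protein sequence. Scores were averaged over arrays of the same protein sequence at different concentrations or buffers, and over linkers, and negative values can be taken as non-binding.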
# GalNAc4S6S(b1-4)GlcNAc = target: GalNAc4S6S(b1-4)GlcNAc
# Procedure, shortened: as §1
# GalNAc6S(b1-4)GlcNAc = target: GalNAc6S(b1-4)GlcNAc
# Procedure, shortened: as §1
# Glc(a1-4)Glc = target: Glc(a1-4)Glc
# Procedure, shortened: as §1
# [2] = target: Glc(a1-4)Glc(a1-4)Glc(a1-4)Glc
# Procedure, shortened: as §1
# Glc(a1-6)Glc(a1-6)Glc = target: Glc(a1-6)Glc(a1-6)Glc
# Procedure, shortened: as §1
# [3] = target: Glc(a1-6)Glc(a1-6)Glc(a1-6)Glc
# Procedure, shortened: as §1
# Glc(b1-4)Glc = target: Glc(b1-4)Glc
# Procedure, shortened: as §1
# Glc(b1-6)Glc = target: Glc(b1-6)Glc
# Procedure, shortened: as §1
# GlcA(b1-3)Gal = target: GlcA(b1-3)Gal
# Procedure, shortened: as §1
# GlcA(b1-3)GlcNAc = target: GlcA(b1-3)GlcNAc
# Procedure, shortened: as §1
# GlcA(b1-6)Gal = target: GlcA(b1-6)Gal
# Procedure, shortened: as §1
# [4] = target: GlcA3S(b1-3)Gal(b1-4)GlcNAc(b1-2)Man
# Procedure, shortened: as §1
# [5] = target: GlcA3S(b1-3)Gal(b1-4)GlcNAc(b1-3)Gal(b1-4)Glc
# Procedure, shortened: as §1
# [6] = target: GlcNAc(a1-3)Gal(b1-4)GlcNAc
# Procedure, shortened: as §1
# [7] = target: GlcNAc(a1-4)Gal(b1-3)GlcNAc
# Procedure, shortened: as §1
# [8] = target: GlcNAc(a1-4)Gal(b1-4)GalNAc
# Procedure, shortened: as §1
# [9] = target: GlcNAc(a1-4)Gal(b1-4)GlcNAc
# Procedure, shortened: as §1
# [10] = target: GlcNAc(a1-4)Gal(b1-4)GlcNAc(b1-3)Gal(b1-4)Glc
# Procedure, shortened: as §1
# [11] = target: GlcNAc(a1-4)Gal(b1-4)GlcNAc(b1-3)Gal(b1-4)GlcNAc
# Procedure, shortened: as §1
# [12] = target: GlcNAc(a1-4)Gal(b1-4)GlcNAc(b1-3)Gal(b1-4)GlcNAc(b1-3)Gal(b1-4)GlcNAc
# Procedure, shortened: as §1
# [13] = target: GlcNAc(a1-4)Gal(b1-4)GlcNAc(b1-3)Gal(b1-4)[Fuc(a1-3)]GlcNAc(b1-3)Gal(b1-4)[Fuc(a1-3)]GlcNAc
# Procedure, shortened: as §1
# [14] = target: GlcNAc(a1-6)Gal(b1-4)GlcNAc
# Procedure, shortened: as §1
# [15] = target: GlcNAc(b1-2)Gal(b1-3)GalNAc
# Procedure, shortened: as §1
# [16] = target: GlcNAc(b1-2)Man(a1-3)[GlcNAc(b1-2)Man(a1-6)]Man(b1-4)GlcNAc(b1-4)GlcNAc
# Procedure, shortened: as §1
# [17] = target: GlcNAc(b1-2)Man(a1-3)[GlcNAc(b1-2)Man(a1-6)]Man(b1-4)GlcNAc(b1-4)[Fuc(a1-6)]GlcNAc
# Procedure, shortened: as §1
# [18] = target: GlcNAc(b1-2)Man(a1-3)[GlcNAc(b1-4)][GlcNAc(b1-2)Man(a1-6)]Man(b1-4)GlcNAc(b1-4)GlcNAc
# Procedure, shortened: as §1
# [19] = target: GlcNAc(b1-2)Man(a1-3)[GlcNAc(b1-4)][GlcNAc(b1-2)Man(a1-6)]Man(b1-4)GlcNAc(b1-4)[Fuc(a1-6)]GlcNAc
# Procedure, shortened: as §1
# [20] = target: GlcNAc(b1-2)[GlcNAc(b1-4)]Man(a1-3)[GlcNAc(b1-2)Man(a1-6)]Man(b1-4)GlcNAc(b1-4)GlcNAc
# Procedure, shortened: as §1
# [21] = target: GlcNAc(b1-2)[GlcNAc(b1-4)]Man(a1-3)[GlcNAc(b1-4)][GlcNAc(b1-2)Man(a1-6)]Man(b1-4)GlcNAc(b1-4)GlcNAc
# Procedure, shortened: as §1
# [22] = target: GlcNAc(b1-2)[GlcNAc(b1-4)]Man(a1-3)[GlcNAc(b1-4)][GlcNAc(b1-2)[GlcNAc(b1-6)]Man(a1-6)]Man(b1-4)GlcNAc(b1-4)GlcNAc
# Procedure, shortened: as §1
# [23] = target: GlcNAc(b1-2)[GlcNAc(b1-4)]Man(a1-3)[GlcNAc(b1-4)][GlcNAc(b1-2)[GlcNAc(b1-6)]Man(a1-6)]Man(b1-4)GlcNAc(b1-4)[Fuc(a1-6)]GlcNAc
# Procedure, shortened: as §1
# [24] = target: GlcNAc(b1-2)[GlcNAc(b1-6)]Man(a1-6)[GlcNAc(b1-2)Man(a1-3)]Man(b1-4)GlcNAc(b1-4)GlcNAc
# Procedure, shortened: as §1
# [25] = target: GlcNAc(b1-2)[GlcNAc(b1-6)]Man(a1-6)[GlcNAc(b1-2)Man(a1-3)]Man(b1-4)GlcNAc(b1-4)[Fuc(a1-6)]GlcNAc
# Procedure, shortened: as §1
# [26] = target: GlcNAc(b1-2)[GlcNAc(b1-6)]Man(a1-6)[GlcNAc(b1-4)][GlcNAc(b1-2)Man(a1-3)]Man(b1-4)GlcNAc(b1-4)GlcNAc
# Procedure, shortened: as §1
# GlcNAc(b1-3)Fuc = target: GlcNAc(b1-3)Fuc
# Procedure, shortened: as §1
# GlcNAc(b1-3)Gal = target: GlcNAc(b1-3)Gal
# Procedure, shortened: as §1
# [27] = target: GlcNAc(b1-3)Gal(b1-3)GalNAc
# Procedure, shortened: as §1
binder,measurement,setting,value
"SfaEH (Escherichia coli), Q1RDG5 (protein) LLCRNNQTGQVFNSGDTSFRVNVSPVVQYDKSISVLDLSQLVSCQNEDSTGQNYDYLKILKGSGFSPALDTKTYGRLDFTSRPTGYARQLPLQFDLQVTEAFYQYGVWKPFPAKLYLYPAPGVFGKVINNGDLLATLYVNKFSTKGQEAGERNFTWRFYATNDVYIQTGTCRVSSNNVKVDLPSYPGGPVTVPLTVRCDQTQSVSYTLSGPVTGSGNTVFANTAASGSGGVGIQLSDNVGPVPAGQPRSLGQVGSSPVSLGLKASYALTGQASPTPGAVQSVINVTFSYN",glycan array binding signal (z-score),[1],2.28
same,glycan array binding signal (z-score),GalNAc4S6S(b1-4)GlcNAc,-1.12
same,glycan array binding signal (z-score),GalNAc6S(b1-4)GlcNAc,1
same,glycan array binding signal (z-score),Glc(a1-4)Glc,-0.104
same,glycan array binding signal (z-score),[2],-0.651
same,glycan array binding signal (z-score),Glc(a1-6)Glc(a1-6)Glc,-0.71
same,glycan array binding signal (z-score),[3],0.219
same,glycan array binding signal (z-score),Glc(b1-4)Glc,-0.406
same,glycan array binding signal (z-score),Glc(b1-6)Glc,-0.083
same,glycan array binding signal (z-score),GlcA(b1-3)Gal,-0.814
same,glycan array binding signal (z-score),GlcA(b1-3)GlcNAc,-0.542
same,glycan array binding signal (z-score),GlcA(b1-6)Gal,-0.918
same,glycan array binding signal (z-score),[4],-0.31
same,glycan array binding signal (z-score),[5],-0.505
same,glycan array binding signal (z-score),[6],0.08
same,glycan array binding signal (z-score),[7],-0.403
same,glycan array binding signal (z-score),[8],-0.363
same,glycan array binding signal (z-score),[9],-1.36
same,glycan array binding signal (z-score),[10],-0.748
same,glycan array binding signal (z-score),[11],-0.911
same,glycan array binding signal (z-score),[12],0.274
same,glycan array binding signal (z-score),[13],0.889
same,glycan array binding signal (z-score),[14],-0.498
same,glycan array binding signal (z-score),[15],-0.327
same,glycan array binding signal (z-score),[16],0.345
same,glycan array binding signal (z-score),[17],-0.917
same,glycan array binding signal (z-score),[18],-0.468
same,glycan array binding signal (z-score),[19],-0.029
same,glycan array binding signal (z-score),[20],0.014
same,glycan array binding signal (z-score),[21],-1.08
same,glycan array binding signal (z-score),[22],-0.811
same,glycan array binding signal (z-score),[23],0.342
same,glycan array binding signal (z-score),[24],-0.668
same,glycan array binding signal (z-score),[25],-0.929
same,glycan array binding signal (z-score),[26],-0.776
same,glycan array binding signal (z-score),GlcNAc(b1-3)Fuc,0.322
same,glycan array binding signal (z-score),GlcNAc(b1-3)Gal,0.771
same,glycan array binding signal (z-score),[27],0.389

# A portion taken from the entries so far:
binder,measurement,setting,value
"SfaEH (Escherichia coli), Q1RDG5 (protein) LLCRNNQTGQVFNSGDTSFRVNVSPVVQYDKSISVLDLSQLVSCQNEDSTGQNYDYLKILKGSGFSPALDTKTYGRLDFTSRPTGYARQLPLQFDLQVTEAFYQYGVWKPFPAKLYLYPAPGVFGKVINNGDLLATLYVNKFSTKGQEAGERNFTWRFYATNDVYIQTGTCRVSSNNVKVDLPSYPGGPVTVPLTVRCDQTQSVSYTLSGPVTGSGNTVFANTAASGSGGVGIQLSDNVGPVPAGQPRSLGQVGSSPVSLGLKASYALTGQASPTPGAVQSVINVTFSYN",glycan array binding signal (z-score),[25],-0.929
same,glycan array binding signal (z-score),[26],-0.776
